We go through one molecule from paper PMC6169833.

By UniProt entry, the sequences of proteins in these tests, tags left out. Residues count along the entry.
UniProt P49790, residues 1-608: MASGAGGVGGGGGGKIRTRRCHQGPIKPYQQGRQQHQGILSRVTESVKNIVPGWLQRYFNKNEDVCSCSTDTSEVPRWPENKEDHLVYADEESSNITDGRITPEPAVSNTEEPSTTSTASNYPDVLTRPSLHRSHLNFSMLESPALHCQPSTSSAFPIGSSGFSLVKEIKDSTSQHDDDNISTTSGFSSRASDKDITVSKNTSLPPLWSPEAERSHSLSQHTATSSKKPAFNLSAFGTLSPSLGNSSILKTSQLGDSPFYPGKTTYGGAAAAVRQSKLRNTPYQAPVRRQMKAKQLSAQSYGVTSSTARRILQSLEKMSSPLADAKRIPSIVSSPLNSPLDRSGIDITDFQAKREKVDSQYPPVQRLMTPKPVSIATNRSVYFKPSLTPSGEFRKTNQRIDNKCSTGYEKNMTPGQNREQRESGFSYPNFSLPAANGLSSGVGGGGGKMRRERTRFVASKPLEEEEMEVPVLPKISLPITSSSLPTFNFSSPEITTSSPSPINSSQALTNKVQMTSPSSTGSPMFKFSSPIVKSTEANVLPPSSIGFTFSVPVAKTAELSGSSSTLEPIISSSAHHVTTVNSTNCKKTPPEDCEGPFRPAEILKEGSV

Results are given in words; binding and its absence hold for the method and conditions named. Binding seen in cells or lysates may run through a third protein. Some binding calls cover weakened binding; strength is not graded here.

In the experiment the target is Nup153-N wild type (1- to 608-amino-acid N-terminal construct of Nup153), C-terminally Flag-tagged (human) (UniProt P49790). In words: co-IP; Flag-M2 agarose beads, lysates of HEK293T cells 72 h after transfection; buffer-1 (150 mM NaCl, 10 mM Tris-Cl pH 7.5, 0.1% Triton X-100, 1 mM EDTA, 0.25% NaDoC, 1 mM DTT); 2 h at 4°C, five washes; Western blotting. A general note: Immunoblotting shows a protein as a band on a membrane.

B1: endogenous Nup107 (protein, UniProt P57740 1-925)
chain: MDRSGFGEISSPVIREAEVTRTARKQSAQKRVLLQASQDENFGNTTPRNQVIPRTPSSFRQPFTPTSRSLLRQPDISCILGTGGKSPRLTQSSGFFGNLSMVTNLDDSNWAAAFSSQRSGLFTNTEPHSITEDVTISAVMLREDDPGEAASMSMFSDFLQSFLKHSSSTVFDLVEEYENICGSQVNILSKIVSRATPGLQKFSKTASMLWLLQQEMVTWRLLASLYRDRIQSALEEESVFAVTAVNASEKTVVEALFQRDSLVRQSQLVVDWLESIAKDEIGEFSDNIEFYAKSVYWENTLHTLKQRQLTSYVGSVRPLVTELDPDAPIRQKMPLDDLDREDEVRLLKYLFTLIRAGMTEEAQRLCKRCGQAWRAATLEGWKLYHDPNVNGGTELEPVEGNPYRRIWKISCWRMAEDELFNRYERAIYAALSGNLKQLLPVCDTWEDTVWAYFRVMVDSLVEQEIQTSVATLDETEELPREYLGANWTLEKVFEELQATDKKRVLEENQEHYHIVQKFLILGDIDGLMDEFSKWLSKSRNNLPGHLLRFMTHLILFFRTLGLQTKEEVSIEVLKTYIQLLIREKHTNLIAFYTCHLPQDLAVAQYALFLESVTEFEQRHHCLELAKEADLDVATITKTVVENIRKKDNGEFSHHDLAPALDTGTTEEDRLKIDVIDWLVFDPAQRAEALKQGNAIMRKFLASKKHEAAKEVFVKIPQDSIAEIYNQCEEQGMESPLPAEDDNAIREHLCIRAYLEAHETFNEWFKHMNSVPQKPALIPQPTFTEKVAHEHKEKKYEMDFGIWKGHLDALTADVKEKMYNVLLFVDGGWMVDVREDAKEDHERTHQMVLLRKLCLPMLCFLLHTILHSTGQYQECLQLADMVSSERHKLYLVFSKEELRKLLQKLRESSLMLLDQGLDPLGYEIQL
For B1, the binding result was “binds”.
